For assay [1], the system named is imatinib-resistant CML patient sample. The experiment in a line: Efficacy in CML patient cells (3H Thymidine uptake). As to conditions: Homo sapiens. It counts as cell-based.
The test system of a further assay is K-562. The experiment in a line: 3H-Thymidine uptake cell proliferation assay. It counts as cell-based. As to conditions: Homo sapiens, K562, 72 h, read-out: Imatinib (IC50).

In general, IC50 refers to the concentration needed to halve the response being measured. Take `Cc1ccc(NC(=O)c2ccc(CN3CCN(C)CC3)cc2)cc1Nc1nccc(-c2cccnc2)n1` [Imatinib, imatinib]: the IC50 amounted to 8 µM in assay [1] and 0.3 µM in the assay with K-562.

The values are drawn from patent US8137708B2, “Herbal composition and process for its preparation” (Piramal Life Sciences Limited, priority 2006, dated 2012).
